Some of the results follow. These are raw signals, not scaled to a control.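 In the initial screen, polymyxin B was used at a concentration that permeabilizes Salmonella's outer membrane but not its inner membrane. Maximum growth was set by DMSO wells with or without polymyxin B. Since plates varied, data were ranked per plate, and compounds giving the lowest OD600 advanced as hits.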
Tested on: Salmonella enterica serovar Typhimurium SL1344
Assay: bacterial growth OD600 after 18 h with compound and polymyxin B; higher = more bacterial growth (less inhibition)
Details: 50 µM, Mueller-Hinton broth

Structure (SMILES)	bacterial growth OD600 (polymyxin B 1 µg/mL)	bacterial growth OD600 (polymyxin B 0.75 µg/mL)
CN(Cc1ccc2nonc2c1)C(=O)c1cc(COc2ccc(F)cc2Cl)on1	0.933	–
COc1ccc2c(C)nc(N3CCC(C(=O)N(C)C4CCOC4)CC3)nc2c1 (configuration not stated)	–	0.808
CCCNC(=O)[C@H]1C[C@@](C)(C(=O)OC)N(C)[C@H]1c1ccccc1Cl	–	0.86
Cc1cc(OCc2cc(C(=O)N3CCCCCCC3)no2)cc(C)c1Cl	0.053	–
COCCN(Cc1ccc(OC)c(OC)c1)CC1CCCN(C2Cc3ccccc3C2)C1 (configuration not stated)	0.697	–
COc1ccc(CCN(C)C2CCCN(C(=O)/C=C/c3c[nH]cn3)C2)cc1OC (configuration not stated)	0.823	–
O=C(C1CCCN(c2nc(-c3ccccc3)nc3c2CCC3)C1)N1CCCCC1 (configuration not stated)	–	0.189
CCN(C)c1ccc(C(=O)N2CCC(Cn3cccn3)CC2)cn1	1.07	–
Cc1ccccc1C1(CC(=O)N2CCCN(c3ncccn3)CC2)CC(=O)N(Cc2ccccc2)C1=O (configuration not stated)	–	0.688
COCCN(C)Cc1cn(-c2ccc(F)cc2)nc1-c1ccccc1Cl	0.839	–
CC(C)Oc1cccc(C(=O)C2CCCN(C(=O)NC(C)(C)C)C2)c1 (configuration not stated)	0.693	–
O=C(c1ccc(-n2cccn2)cc1)N1CCCC(Nc2ccc3c(c2)OCCO3)C1 (configuration not stated)	0.825	–
O=C(c1ccc(F)cc1)N1CCc2onc(-c3ccccc3F)c2C1	–	-0.002
CN(Cc1ccc2nccnc2c1)C(=O)CCN1Cc2ccccc2OC(c2ccccc2)C1 (configuration not stated)	–	0.985
COc1ccc(-c2noc(CN3CCOc4ccc(Cl)cc4C3)n2)c(OC)c1OC	0.882	–
COc1ccc(F)c(CN2CCCC(O)(CN3CCC4(CC3)OCCO4)C2=O)c1 (configuration not stated)	0.927	–

Single entries from the entries so far:
`COc1ccc(-c2noc(CN3CCOc4ccc(Cl)cc4C3)n2)c(OC)c1OC` – bacterial growth OD600 (polymyxin B 1 µg/mL): 0.882
`Cc1cc(OCc2cc(C(=O)N3CCCCCCC3)no2)cc(C)c1Cl` – bacterial growth OD600 (polymyxin B 1 µg/mL): 0.053

(listing goes on)

Structure (SMILES)	bacterial growth OD600 (polymyxin B 1 µg/mL)	bacterial growth OD600 (polymyxin B 0.75 µg/mL)
COCc1ccc(C(=O)N2CCCC(CCc3ccc(F)c(F)c3)C2)o1 (configuration not stated)	–	0.001
COc1cccc(-c2ccc(NC(=O)C3CCCN(C(C)C)C3)cc2)c1 (configuration not stated)	0.792	–
COc1ncccc1C(=O)N1CCc2[nH]nc(-c3cccc(F)c3)c2C1	–	0.761
C=CCOc1cccc(C(=O)N2CCCC(CO)(Cc3ccc(F)cc3F)C2)c1 (configuration not stated)	0.012	–
Fc1ccc(C2CCN(Cc3ccc4nccnc4c3)c3ccccc3S2)cc1F (configuration not stated)	–	0.032
CNc1ccc(C(=O)NCCC2CCCCN2C)cn1 (configuration not stated)	0.937	–
COc1ccc(F)c(CN2CCCC3(CCN(CCC(C)C)C3)C2=O)c1 (configuration not stated)	0.578	–
CCN(Cc1ccccc1)C(=O)c1oc2ccc(C)cc2c1C	0.21	–
CCOC(=O)C1(CCCc2ccccc2)CCN(Cc2cccnc2)CC1	–	0.581
COCC(=O)Nc1cc(C(=O)NC(c2ccccn2)C(F)(F)F)c2c(c1)nc(C1CCC1)n2C (configuration not stated)	–	0.846
O=C(CCc1[nH]nc2c1CCCC2)N1CCCC(Nc2ccc3c(c2)OCCO3)C1 (configuration not stated)	0.791	–
CCCc1cc(C(=O)NCC2Cc3cc(-c4cccnc4)cc(F)c3O2)n(C)n1 (configuration not stated)	–	0.816
COc1ccccc1C(=O)N[C@@H]1c2ccccc2C2(CCN(C(=O)CC3CCCC3)CC2)[C@H]1OC	–	0.028
COCCc1nc2ccc(C(=O)N3CCCC3c3nc4ccc(C)cc4[nH]3)cc2o1 (configuration not stated)	0.893	–
CSc1ccc(CC2(CCC(=O)N(C)Cc3cccc(-n4nc(C)cc4C)c3)CCC(=O)N2)cc1 (configuration not stated)	–	0.817
CC(C)C(=O)N1CCC2(CCCN(Cc3cccc(F)c3F)C2=O)C1 (configuration not stated)	0.846	–

— the supplement of paper PMC12889115
